No constants are given. Whether binding was seen depends on the method and setting. Binding seen in cells or lysates may run through a third protein. Some results given as binding are weak or reduced against the parent protein; the word gives no strength. Tags and fused reporters may be left off the sequences shown.
Columns and labels:
[1] = target: T1, myosin le (Myosin Ic) (human) (UniProt Q12965); assay: GST pull-down from NCI-H630 lysate (HepG2 lysate as control), LC-MS/MS; MASCOT score 583
T1 sequence (looked up): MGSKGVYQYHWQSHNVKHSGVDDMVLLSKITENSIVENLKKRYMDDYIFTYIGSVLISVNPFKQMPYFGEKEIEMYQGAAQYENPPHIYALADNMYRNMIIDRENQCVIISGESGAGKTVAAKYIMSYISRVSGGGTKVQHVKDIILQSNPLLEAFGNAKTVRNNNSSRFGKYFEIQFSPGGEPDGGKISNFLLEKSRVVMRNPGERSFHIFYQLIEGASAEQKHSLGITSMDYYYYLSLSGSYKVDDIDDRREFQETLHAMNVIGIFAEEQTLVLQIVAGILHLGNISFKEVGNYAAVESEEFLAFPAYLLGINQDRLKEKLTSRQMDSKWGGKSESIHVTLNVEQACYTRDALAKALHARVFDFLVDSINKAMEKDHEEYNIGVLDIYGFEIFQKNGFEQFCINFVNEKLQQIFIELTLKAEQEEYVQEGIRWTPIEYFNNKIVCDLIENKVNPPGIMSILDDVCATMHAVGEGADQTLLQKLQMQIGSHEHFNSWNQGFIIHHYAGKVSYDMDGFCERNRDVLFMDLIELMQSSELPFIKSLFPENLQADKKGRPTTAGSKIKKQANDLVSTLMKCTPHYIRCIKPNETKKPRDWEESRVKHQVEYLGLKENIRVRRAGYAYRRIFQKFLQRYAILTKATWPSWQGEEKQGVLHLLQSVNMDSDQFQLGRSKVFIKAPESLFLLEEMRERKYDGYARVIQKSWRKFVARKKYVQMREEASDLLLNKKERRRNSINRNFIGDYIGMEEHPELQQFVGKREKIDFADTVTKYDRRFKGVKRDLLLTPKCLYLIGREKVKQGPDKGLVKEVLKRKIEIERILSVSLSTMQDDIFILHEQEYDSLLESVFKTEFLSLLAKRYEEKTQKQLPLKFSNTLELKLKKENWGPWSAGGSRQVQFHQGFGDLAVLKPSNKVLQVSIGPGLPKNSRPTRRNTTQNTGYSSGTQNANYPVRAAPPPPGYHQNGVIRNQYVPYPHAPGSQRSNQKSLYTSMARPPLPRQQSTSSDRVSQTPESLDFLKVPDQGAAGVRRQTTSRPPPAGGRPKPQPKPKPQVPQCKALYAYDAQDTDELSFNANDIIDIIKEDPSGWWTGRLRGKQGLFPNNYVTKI

Protein sequences, listed by entry. Tags and fused reporters are not part of them. Residues count along the entry.
UniProt P35580: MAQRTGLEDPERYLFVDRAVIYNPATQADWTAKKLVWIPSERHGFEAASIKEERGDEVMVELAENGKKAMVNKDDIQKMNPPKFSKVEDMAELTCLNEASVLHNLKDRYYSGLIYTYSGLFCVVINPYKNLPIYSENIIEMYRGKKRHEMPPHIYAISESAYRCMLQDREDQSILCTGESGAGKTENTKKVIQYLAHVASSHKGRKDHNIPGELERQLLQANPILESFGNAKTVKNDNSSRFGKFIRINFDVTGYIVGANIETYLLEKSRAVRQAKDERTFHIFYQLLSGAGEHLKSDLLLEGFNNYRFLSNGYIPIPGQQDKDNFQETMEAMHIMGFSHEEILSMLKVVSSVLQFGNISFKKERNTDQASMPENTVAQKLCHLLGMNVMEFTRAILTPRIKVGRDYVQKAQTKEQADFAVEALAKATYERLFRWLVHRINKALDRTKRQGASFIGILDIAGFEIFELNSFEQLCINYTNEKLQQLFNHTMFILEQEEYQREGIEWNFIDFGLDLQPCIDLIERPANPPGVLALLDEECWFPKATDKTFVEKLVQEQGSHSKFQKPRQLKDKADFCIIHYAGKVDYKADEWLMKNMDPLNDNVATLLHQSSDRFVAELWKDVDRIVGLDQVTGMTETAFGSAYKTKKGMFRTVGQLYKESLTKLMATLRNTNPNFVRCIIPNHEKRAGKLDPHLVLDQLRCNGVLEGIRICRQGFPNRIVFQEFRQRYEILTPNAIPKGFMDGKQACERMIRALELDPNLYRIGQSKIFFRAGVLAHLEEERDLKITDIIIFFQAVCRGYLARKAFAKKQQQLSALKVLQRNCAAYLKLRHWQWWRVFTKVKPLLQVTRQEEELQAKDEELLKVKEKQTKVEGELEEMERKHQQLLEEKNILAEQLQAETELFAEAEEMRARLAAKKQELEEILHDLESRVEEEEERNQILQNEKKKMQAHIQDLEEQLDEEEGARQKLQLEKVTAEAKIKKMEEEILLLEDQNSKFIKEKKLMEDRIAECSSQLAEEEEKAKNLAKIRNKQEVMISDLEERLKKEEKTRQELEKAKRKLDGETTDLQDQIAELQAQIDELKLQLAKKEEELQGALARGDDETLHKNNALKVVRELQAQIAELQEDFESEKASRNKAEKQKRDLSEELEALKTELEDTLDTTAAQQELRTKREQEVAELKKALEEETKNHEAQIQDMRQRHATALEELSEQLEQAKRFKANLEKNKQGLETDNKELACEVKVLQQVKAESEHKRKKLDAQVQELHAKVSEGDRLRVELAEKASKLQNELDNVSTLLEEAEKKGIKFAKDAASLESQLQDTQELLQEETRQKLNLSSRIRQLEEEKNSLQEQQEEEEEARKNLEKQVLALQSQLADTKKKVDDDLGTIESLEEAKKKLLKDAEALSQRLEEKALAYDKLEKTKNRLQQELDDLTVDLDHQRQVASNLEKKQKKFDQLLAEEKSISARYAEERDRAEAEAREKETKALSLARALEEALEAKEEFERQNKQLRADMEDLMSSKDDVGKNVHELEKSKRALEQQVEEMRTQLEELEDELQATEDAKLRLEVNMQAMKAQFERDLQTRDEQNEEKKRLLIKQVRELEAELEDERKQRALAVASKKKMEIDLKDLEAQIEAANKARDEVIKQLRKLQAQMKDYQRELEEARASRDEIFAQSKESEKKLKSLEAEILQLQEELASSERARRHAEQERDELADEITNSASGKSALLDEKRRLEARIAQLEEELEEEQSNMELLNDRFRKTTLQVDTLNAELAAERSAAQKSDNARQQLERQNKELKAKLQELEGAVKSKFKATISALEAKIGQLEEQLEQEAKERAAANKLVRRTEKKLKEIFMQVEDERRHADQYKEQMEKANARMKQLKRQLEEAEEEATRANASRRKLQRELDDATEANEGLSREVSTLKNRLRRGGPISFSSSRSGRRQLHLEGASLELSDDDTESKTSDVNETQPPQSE
UniProt Q00610, residues 2-1675: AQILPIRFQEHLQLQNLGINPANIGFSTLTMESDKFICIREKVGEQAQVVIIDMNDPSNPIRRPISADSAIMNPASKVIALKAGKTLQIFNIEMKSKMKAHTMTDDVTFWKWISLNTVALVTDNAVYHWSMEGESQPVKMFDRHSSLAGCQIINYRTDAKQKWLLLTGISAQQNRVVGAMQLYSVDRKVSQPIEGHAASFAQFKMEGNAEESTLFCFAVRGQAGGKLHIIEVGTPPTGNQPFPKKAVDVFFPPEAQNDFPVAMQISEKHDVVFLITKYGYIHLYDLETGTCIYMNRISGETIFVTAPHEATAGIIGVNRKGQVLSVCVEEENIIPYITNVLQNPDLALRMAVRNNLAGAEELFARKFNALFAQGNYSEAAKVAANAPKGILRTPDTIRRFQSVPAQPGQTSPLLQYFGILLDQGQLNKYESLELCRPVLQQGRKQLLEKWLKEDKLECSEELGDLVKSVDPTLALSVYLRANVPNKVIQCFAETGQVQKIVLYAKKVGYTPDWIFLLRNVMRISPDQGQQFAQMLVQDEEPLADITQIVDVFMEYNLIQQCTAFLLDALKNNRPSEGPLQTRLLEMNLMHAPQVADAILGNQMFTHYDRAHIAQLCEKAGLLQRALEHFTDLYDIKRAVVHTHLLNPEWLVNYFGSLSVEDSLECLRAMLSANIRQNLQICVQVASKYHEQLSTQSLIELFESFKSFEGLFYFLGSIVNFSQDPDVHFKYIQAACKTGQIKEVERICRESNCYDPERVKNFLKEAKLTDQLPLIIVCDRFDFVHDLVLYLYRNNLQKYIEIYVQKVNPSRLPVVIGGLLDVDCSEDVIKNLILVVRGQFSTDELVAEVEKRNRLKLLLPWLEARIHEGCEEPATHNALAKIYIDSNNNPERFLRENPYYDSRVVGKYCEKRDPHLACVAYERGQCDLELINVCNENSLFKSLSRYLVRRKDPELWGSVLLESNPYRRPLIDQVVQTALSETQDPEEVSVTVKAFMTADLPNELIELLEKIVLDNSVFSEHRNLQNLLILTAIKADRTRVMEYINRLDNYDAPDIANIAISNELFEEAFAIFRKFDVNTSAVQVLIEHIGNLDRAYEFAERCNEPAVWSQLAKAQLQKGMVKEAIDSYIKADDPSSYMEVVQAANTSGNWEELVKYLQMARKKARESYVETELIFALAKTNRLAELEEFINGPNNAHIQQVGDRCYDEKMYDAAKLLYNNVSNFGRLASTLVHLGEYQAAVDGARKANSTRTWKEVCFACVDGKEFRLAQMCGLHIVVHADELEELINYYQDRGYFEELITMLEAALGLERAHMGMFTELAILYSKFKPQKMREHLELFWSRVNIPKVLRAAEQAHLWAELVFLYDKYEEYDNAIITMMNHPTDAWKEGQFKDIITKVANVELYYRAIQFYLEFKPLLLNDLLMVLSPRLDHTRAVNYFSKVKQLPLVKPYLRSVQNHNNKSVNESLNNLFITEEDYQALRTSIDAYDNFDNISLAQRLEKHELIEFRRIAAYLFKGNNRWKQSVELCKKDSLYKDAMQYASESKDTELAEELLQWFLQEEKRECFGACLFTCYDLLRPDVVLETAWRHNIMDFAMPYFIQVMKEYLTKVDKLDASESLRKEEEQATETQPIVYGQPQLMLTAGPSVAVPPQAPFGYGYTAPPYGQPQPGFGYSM
UniProt P35579, residues 2-1960: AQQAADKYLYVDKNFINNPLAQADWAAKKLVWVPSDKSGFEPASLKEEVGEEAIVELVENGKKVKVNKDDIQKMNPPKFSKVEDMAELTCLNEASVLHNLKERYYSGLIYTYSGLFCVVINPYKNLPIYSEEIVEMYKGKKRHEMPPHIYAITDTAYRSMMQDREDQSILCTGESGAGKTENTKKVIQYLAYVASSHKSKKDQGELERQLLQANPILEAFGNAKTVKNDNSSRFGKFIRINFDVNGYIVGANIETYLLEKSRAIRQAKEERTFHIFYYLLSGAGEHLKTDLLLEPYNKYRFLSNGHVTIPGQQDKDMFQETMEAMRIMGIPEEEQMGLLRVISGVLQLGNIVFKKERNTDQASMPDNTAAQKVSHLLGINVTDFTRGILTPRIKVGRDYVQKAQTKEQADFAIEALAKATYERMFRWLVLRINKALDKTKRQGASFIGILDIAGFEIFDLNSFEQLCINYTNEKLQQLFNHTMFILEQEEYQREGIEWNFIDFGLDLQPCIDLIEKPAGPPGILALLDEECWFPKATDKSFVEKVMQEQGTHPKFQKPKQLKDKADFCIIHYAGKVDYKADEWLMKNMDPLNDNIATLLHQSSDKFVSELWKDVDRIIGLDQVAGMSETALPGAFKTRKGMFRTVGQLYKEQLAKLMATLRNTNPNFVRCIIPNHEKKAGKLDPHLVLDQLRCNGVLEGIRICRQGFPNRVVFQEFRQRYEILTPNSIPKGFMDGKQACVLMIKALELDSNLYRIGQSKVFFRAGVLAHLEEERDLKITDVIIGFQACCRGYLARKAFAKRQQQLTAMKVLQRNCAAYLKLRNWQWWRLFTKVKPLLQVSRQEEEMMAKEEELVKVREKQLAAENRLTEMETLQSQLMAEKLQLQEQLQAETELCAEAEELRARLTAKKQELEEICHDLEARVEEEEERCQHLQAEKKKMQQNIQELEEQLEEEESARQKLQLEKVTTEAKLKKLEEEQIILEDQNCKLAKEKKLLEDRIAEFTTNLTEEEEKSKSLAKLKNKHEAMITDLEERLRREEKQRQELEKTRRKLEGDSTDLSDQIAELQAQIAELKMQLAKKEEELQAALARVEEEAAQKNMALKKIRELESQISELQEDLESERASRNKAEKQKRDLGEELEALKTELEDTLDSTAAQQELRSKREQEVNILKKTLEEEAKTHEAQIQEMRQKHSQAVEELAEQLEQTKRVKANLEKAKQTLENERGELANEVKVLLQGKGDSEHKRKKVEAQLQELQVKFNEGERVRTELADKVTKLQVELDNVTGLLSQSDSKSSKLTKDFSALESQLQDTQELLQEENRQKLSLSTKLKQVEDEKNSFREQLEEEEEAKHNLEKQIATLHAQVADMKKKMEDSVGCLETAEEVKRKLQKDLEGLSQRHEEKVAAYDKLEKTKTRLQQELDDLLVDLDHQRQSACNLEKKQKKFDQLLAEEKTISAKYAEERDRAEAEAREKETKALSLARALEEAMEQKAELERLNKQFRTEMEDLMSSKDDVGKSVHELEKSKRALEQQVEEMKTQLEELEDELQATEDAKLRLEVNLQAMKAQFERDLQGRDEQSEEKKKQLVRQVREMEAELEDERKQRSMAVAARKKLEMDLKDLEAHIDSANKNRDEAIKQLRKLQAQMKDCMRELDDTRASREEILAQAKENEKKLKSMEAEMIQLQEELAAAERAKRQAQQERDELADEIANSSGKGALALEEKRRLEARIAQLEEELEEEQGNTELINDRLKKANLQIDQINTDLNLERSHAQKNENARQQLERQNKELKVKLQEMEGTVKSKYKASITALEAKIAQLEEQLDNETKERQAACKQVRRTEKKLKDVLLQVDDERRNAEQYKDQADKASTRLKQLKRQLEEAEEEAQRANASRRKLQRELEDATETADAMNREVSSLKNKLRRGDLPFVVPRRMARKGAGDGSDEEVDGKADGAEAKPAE

[2] = target: myosin-10 (human) (UniProt P35580); assay: GST pull-down from NCI-H630 lysate (HepG2 lysate as control), LC-MS/MS; MASCOT score 235
[3] = target: clathrin heavy chain 1 (human) (UniProt Q00610); assay: GST pull-down from NCI-H630 lysate (HepG2 lysate as control), LC-MS/MS; MASCOT score 1556
[4] = target: T2, cingulin (human) (UniProt Q9P2M7); assay: GST pull-down from NCI-H630 lysate (HepG2 lysate as control), LC-MS/MS; MASCOT score 224
T2 sequence (looked up): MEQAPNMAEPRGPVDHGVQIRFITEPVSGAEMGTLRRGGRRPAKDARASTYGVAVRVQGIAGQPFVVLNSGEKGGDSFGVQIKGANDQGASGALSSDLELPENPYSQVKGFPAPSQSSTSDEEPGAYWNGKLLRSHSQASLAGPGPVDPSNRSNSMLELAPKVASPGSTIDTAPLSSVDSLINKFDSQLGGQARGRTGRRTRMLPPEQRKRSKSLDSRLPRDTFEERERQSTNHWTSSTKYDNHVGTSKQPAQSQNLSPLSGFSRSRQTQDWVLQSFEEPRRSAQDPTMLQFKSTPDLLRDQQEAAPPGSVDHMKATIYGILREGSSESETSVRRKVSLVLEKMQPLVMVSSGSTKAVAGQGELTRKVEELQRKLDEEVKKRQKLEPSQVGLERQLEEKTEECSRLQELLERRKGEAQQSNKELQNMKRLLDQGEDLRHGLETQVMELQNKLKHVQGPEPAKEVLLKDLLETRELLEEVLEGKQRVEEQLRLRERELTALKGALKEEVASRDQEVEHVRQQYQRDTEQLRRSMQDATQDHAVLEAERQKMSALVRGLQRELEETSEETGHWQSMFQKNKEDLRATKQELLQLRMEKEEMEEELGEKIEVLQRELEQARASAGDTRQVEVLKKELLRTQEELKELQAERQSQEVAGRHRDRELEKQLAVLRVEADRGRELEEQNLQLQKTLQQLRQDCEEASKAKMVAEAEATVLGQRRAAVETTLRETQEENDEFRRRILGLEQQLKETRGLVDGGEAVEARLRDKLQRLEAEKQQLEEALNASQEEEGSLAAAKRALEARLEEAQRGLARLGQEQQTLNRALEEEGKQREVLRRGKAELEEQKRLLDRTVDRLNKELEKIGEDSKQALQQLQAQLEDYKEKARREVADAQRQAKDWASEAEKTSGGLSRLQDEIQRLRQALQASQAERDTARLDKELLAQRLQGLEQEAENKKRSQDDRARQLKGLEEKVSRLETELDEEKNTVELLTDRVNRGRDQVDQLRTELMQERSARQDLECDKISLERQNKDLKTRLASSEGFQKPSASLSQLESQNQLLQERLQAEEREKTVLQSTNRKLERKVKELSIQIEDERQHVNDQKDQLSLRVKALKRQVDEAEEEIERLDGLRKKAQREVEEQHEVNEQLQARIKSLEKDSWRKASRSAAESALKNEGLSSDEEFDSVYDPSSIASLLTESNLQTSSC

[5] = target: myosin-9 (human) (UniProt P35579); assay: GST pull-down from NCI-H630 lysate (HepG2 lysate as control), LC-MS/MS; MASCOT score 4750
[6] = target: T3, tropomodulin-3 (human) (UniProt Q9NYL9); assay: GST pull-down from NCI-H630 lysate (HepG2 lysate as control), LC-MS/MS; MASCOT score 758
T3 sequence (looked up): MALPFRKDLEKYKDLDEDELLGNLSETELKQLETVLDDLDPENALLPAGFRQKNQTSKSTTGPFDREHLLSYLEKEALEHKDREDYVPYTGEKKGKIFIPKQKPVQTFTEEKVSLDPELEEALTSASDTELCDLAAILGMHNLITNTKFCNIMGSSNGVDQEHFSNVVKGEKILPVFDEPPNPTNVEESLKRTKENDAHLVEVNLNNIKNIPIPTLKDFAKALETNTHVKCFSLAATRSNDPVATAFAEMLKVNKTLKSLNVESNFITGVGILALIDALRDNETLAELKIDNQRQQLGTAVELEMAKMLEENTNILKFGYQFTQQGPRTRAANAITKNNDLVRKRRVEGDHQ

Measured: binding

CGIYRLRSC (peptide, not shown: a dimerising Fc or GST) […-GST]
binds: all assays above

— patent EP2703005A1, “Inhibitors of alpha6 Integrin/E-Cadherin Complex” (Università Degli Studi Di Torino, priority 2012, dated 2014)
